Experiment in all cases: protein microarray (ProtoArray v5.0), streptavidin-Alexa Fluor 647
What all share (settings): 3'-biotin; 20 mM Tris (pH 7.5), 5 mM MgCl2, 100 mM KCl, 0.1% Tween-20, A/T-rich and random oligonucleotide blockers; temperature not stated; high values mean tight binding

By UniProt entry, the sequences of proteins in these tests, tags left out.
UniProt Q16143, whole entry: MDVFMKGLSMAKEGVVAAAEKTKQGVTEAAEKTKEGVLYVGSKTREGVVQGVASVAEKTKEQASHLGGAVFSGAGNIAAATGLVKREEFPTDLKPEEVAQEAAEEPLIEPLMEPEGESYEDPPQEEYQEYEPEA

In assay [1] the test system is SNAP29 (human).
In assay [2] the target is T1, SNAPC5 (UniProt O75971).
T1 sequence: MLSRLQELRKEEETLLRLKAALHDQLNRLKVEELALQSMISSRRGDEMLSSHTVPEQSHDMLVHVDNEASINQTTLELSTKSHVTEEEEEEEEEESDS

For assay [3], the system named is SNCA (human).
The target in assay [4] is SNCB (UniProt Q16143).
The test system of assay [5] is SNF1LK2 (human).
The test system of assay [6] is SNF8 (human).
In assay [7] the target is T2, SNFT (UniProt Q9NR55).
T2 sequence: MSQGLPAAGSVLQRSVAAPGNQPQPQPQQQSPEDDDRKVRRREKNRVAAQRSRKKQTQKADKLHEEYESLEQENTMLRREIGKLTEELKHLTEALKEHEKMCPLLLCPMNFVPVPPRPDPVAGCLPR

The test system of assay [8] is SNIP (human).
For assay [9], the system named is SNX1 (human).
Assay [10] deals with SNX10 (human).

The other results are listed elsewhere or left out. For some of these results: Construct or isoform of the protein are uncertain.

“GGGAGGCTGAGGCAGG [G4-1 biotinylated (PQS2)]”: the binding signal in assay [1] was -0.305 z-score; in [2], -0.346 z-score; in assay [3], -0.365 z-score; in assay [4], -0.361 z-score; in assay [5] it was -0.312 z-score; in assay [6], -0.266 z-score. Moreover, the binding signal was 4.53 z-score in assay [7], -0.292 z-score in assay [8], -0.295 z-score in [9] and -0.303 z-score in assay [10].

(Values after PMC5996148.)
